Values from PubChem BioAssay AID743454 (Peter MacCallum Cancer Centre, 2014).
The deposit covers about 18,000 reagents; shown is an unselected part. 450 of all reagents (2.5%) count as active. 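Single biological run; no consistent viability z cut-off exists, so the class columns, not z-scores, define the calls.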

- Screen: 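Search for knock-downs that restore vorinostat killing in resistant colon cancer cells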 (primary screen)
- Cells: human HCT116-VR colon cancer cells, selected for vorinostat resistance
- Knock-down reagent: siRNA pool against human genes, 40 nM siRNA pool
- Time to read-out: vorinostat for 24 h, read-out about 72 h after transfection
- Treatment: vorinostat at 2.5 µM final
- Read-out: 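Cell viability by CellTiter-Fluor and caspase 3/7 activity by luminescence, each scaled to mock wells per plate, duplicates averaged, then robust z-scored over all plates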
- Scale: viability robust z-score: higher = more viable cells than screen typical; caspase robust z-score: higher = more caspase 3/7 activity than screen typical
- Rule for the call: 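a knock-down is a hit when classed RV1 or RV2 for lowered viability, or CA1 or CA2 for caspase activation; those lethal without drug were dropped; hits were retested singly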

Target gene | viability hit class | caspase hit class | viability robust z-score | caspase robust z-score | activity call
LGALS7B (galectin 7B) | no change | no change | -0.64 | 1.1 | inactive
EEF1B2 (eukaryotic translation elongation factor 1 beta 2) | no change | no change | 0.96 | 1.15 | inactive
CAPN7 (calpain 7) | no change | no change | -0.24 | -0.26 | inactive
DHX38 (DEAH-box helicase 38) | no change | no change | -2.45 | 3.94 | inactive
REXO1 (RNA exonuclease 1 homolog) | no change | no change | -0.64 | 0.65 | inactive
TAF2 (TATA-box binding protein associated factor 2) | no change | no change | -0.23 | -0.82 | inactive
INS (insulin) | no change | no change | 0.66 | 0.7 | inactive
ARMC2 (armadillo repeat containing 2) | no change | no change | -0.8 | 0.46 | inactive
RPS6KA2 (ribosomal protein S6 kinase A2) | no change | no change | -2.38 | 0.02 | inactive
MAGEB18 (MAGE family member B18) | no change | no change | 0.36 | -1.01 | inactive
DICER1 (dicer 1, ribonuclease III) | no change | no change | -0.2 | -0.83 | inactive
OR2J3 (olfactory receptor family 2 subfamily J member 3) | no change | no change | 1.89 | 0.06 | inactive
ZSCAN1 (zinc finger and SCAN domain containing 1) | no change | no change | 0.47 | 0.16 | inactive
CLIC6 (CLIC family member 6) | no change | no change | -0.44 | -0.9 | inactive
TMEM63B (transmembrane protein 63B) | no change | no change | -0.61 | 3.47 | inactive
CDADC1 (cytidine and dCMP deaminase domain containing 1) | no change | no change | 1.56 | -0.06 | inactive
NKX2-5 (NK2 homeobox 5) | no change | no change | -1.09 | 2.36 | inactive
OR4F15 (olfactory receptor family 4 subfamily F member 15) | no change | no change | 0.19 | 0.14 | inactive
KRTAP19-4 (keratin associated protein 19-4) | no change | no change | -0.28 | 0.12 | inactive
USP49 (ubiquitin specific peptidase 49) | no change | no change | 1.6 | 3.94 | inactive
PLAAT5 (phospholipase A and acyltransferase 5) | no change | CA1 (caspase activation) | -0.1 | 6.42 | active
MSRB1 (methionine sulfoxide reductase B1) | no change | no change | 0.4 | 0.99 | inactive
CMKLR1 (chemerin chemokine-like receptor 1) | no change | no change | -0.13 | -0.87 | inactive

Part of the list above, showing only “caspase robust z-score”.
CLIC6 (CLIC family member 6)	-0.9
TMEM63B (transmembrane protein 63B)	3.47
CDADC1 (cytidine and dCMP deaminase domain containing 1)	-0.06
NKX2-5 (NK2 homeobox 5)	2.36
